Measurements taken from the supplement of paper PMC10849652.
Some of the results follow.

Protein sequences, listed by entry. Tags and fused reporters are not part of them. Lines headed by an entry give the natural chain unless they say otherwise; changes in a name come on top.
UniProt Q96KP1: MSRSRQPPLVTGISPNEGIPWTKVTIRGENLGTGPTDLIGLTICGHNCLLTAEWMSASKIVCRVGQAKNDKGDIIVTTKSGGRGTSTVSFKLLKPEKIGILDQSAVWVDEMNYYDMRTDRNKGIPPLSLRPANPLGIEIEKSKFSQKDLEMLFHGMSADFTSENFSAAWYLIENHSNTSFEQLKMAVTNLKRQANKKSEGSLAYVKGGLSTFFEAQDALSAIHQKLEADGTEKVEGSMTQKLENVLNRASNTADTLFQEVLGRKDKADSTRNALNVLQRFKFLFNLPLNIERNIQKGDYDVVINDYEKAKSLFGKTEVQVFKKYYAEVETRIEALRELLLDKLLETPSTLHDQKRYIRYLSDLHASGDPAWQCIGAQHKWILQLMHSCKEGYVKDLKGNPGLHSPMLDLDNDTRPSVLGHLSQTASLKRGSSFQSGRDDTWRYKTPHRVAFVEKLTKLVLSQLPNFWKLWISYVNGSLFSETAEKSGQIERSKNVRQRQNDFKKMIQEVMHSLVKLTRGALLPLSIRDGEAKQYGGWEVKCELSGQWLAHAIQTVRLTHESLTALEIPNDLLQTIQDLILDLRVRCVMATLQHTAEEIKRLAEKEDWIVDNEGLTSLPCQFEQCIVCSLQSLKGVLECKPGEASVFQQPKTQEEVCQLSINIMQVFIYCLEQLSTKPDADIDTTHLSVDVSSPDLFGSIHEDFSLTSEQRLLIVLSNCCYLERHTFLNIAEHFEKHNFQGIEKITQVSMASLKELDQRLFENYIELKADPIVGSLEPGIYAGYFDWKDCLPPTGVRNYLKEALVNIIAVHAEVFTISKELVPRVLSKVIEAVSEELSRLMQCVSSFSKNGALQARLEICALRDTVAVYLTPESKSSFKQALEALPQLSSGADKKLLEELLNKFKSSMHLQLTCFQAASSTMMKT
UniProt Q96DZ1: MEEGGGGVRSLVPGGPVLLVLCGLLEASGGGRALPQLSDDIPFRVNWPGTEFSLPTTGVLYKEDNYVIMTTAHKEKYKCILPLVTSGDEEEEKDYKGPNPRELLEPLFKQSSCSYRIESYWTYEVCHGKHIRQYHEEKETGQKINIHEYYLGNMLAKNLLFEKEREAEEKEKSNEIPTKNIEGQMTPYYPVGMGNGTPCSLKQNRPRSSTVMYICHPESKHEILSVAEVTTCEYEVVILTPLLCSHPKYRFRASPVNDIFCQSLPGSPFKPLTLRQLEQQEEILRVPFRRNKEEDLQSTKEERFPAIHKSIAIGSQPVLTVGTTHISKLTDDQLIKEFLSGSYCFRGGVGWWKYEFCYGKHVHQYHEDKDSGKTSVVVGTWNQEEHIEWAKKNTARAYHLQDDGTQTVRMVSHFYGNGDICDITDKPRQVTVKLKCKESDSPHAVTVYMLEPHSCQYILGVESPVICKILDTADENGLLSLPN
UniProt Q96EK7: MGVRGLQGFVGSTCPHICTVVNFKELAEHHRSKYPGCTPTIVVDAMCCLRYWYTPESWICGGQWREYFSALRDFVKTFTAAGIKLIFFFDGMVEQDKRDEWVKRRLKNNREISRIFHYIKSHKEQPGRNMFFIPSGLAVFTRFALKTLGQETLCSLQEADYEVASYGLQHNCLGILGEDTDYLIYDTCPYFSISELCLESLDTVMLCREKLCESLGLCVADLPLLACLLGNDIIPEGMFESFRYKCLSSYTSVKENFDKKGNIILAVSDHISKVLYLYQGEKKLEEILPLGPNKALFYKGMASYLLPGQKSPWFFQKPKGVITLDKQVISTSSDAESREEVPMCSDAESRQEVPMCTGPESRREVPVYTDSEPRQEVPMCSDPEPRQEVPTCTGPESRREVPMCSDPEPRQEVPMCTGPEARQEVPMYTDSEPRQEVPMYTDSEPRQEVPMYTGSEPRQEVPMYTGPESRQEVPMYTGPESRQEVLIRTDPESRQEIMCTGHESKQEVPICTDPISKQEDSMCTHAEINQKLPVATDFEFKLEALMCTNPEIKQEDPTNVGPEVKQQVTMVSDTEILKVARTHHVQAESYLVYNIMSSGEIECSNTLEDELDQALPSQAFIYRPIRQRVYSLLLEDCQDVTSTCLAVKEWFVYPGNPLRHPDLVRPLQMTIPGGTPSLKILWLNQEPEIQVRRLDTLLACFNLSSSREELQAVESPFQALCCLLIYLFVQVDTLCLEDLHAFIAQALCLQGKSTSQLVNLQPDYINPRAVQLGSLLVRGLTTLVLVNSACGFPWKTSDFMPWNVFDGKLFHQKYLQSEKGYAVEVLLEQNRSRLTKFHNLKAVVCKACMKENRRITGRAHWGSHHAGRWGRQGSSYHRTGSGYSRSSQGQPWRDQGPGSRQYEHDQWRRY
UniProt O95571: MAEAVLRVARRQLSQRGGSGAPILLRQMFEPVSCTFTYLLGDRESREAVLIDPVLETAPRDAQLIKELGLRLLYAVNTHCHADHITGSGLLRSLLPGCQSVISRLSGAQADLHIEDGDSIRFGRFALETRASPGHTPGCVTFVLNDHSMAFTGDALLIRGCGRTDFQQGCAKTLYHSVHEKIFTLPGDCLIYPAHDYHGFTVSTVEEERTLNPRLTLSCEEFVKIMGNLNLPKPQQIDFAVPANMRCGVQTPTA
UniProt Q9BS26: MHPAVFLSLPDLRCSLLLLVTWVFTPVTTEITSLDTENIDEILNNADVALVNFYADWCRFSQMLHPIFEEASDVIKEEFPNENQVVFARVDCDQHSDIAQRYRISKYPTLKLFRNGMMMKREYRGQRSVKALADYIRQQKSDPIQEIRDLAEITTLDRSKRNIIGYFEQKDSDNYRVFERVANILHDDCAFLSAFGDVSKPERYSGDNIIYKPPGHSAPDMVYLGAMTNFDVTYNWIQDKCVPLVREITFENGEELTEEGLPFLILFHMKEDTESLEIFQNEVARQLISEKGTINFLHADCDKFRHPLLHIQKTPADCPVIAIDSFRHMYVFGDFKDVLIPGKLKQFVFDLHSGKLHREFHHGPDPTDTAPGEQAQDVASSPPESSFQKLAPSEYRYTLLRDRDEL
UniProt Q9UPT5: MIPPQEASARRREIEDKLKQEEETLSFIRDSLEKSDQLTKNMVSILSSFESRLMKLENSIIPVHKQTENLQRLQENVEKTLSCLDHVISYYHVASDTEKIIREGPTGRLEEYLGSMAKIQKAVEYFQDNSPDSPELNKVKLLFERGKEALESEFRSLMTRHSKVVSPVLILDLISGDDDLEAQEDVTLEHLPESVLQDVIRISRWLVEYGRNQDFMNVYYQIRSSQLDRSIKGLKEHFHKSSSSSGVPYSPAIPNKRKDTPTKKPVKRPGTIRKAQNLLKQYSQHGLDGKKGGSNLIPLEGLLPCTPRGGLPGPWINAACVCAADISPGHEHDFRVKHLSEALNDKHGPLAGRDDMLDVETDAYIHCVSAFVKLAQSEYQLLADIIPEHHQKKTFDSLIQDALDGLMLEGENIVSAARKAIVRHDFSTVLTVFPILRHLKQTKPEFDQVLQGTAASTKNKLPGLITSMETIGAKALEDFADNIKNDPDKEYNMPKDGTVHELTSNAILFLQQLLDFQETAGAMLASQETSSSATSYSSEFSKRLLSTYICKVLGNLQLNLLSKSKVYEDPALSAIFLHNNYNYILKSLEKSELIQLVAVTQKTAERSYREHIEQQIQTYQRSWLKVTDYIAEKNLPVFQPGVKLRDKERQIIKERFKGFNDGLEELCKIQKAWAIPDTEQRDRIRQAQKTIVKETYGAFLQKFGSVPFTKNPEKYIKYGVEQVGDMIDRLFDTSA
UniProt Q15910, whole entry, looked up: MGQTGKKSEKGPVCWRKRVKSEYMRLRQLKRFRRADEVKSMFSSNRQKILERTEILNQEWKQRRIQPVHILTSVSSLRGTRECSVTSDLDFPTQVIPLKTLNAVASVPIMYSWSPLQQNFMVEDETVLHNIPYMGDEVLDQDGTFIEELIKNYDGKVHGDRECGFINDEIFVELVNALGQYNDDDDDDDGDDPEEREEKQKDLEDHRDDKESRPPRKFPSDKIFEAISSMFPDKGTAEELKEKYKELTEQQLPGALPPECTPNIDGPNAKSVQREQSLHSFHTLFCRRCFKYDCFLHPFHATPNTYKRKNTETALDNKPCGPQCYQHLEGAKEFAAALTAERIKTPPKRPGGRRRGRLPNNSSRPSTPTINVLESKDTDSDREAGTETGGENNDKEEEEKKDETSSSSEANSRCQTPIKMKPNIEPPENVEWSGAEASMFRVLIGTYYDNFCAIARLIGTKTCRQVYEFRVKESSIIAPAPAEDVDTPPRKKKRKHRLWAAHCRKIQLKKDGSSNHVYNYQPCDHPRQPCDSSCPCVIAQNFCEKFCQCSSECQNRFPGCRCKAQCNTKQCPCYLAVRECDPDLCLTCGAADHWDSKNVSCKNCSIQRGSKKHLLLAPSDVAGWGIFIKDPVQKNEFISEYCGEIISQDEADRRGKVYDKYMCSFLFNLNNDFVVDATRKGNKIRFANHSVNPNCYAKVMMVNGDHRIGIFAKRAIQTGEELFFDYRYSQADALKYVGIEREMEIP
UniProt Q01844: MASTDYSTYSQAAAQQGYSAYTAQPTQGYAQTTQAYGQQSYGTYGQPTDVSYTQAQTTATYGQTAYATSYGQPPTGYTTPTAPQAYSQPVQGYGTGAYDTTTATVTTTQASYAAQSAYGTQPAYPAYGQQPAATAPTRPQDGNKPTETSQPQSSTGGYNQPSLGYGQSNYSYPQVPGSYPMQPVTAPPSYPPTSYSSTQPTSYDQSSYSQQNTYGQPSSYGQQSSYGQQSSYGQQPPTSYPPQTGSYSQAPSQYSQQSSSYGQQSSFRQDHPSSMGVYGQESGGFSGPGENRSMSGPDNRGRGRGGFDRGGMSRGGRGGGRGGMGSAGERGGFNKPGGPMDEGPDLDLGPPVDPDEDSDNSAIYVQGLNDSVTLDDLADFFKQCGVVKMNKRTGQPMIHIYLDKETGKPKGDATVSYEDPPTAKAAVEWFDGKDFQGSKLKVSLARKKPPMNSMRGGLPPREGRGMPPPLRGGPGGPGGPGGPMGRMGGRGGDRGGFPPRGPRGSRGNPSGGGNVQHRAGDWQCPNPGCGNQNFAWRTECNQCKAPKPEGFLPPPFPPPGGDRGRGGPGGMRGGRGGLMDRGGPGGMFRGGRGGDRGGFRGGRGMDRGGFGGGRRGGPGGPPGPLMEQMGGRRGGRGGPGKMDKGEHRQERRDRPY
UniProt Q6P2I3: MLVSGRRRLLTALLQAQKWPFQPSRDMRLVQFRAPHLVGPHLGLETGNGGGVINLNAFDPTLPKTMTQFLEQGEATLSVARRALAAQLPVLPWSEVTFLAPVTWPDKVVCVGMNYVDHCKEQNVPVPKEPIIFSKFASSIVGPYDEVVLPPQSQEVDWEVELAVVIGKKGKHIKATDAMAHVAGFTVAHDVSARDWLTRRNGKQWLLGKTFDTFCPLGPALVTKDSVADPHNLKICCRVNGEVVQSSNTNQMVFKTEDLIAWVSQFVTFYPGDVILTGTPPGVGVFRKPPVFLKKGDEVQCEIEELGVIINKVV
UniProt P10768: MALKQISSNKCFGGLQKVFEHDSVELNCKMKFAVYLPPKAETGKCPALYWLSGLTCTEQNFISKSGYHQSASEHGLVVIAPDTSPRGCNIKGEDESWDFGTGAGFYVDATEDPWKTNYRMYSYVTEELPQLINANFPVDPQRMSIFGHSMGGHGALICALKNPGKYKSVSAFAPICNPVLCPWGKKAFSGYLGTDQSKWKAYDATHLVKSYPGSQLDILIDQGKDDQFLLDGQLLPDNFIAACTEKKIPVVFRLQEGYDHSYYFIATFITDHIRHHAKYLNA
UniProt Q96A26: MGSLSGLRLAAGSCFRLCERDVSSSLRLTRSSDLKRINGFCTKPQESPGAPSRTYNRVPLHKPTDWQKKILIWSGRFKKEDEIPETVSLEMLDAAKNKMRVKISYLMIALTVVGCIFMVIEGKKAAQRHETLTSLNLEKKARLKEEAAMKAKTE
UniProt Q9NSI2: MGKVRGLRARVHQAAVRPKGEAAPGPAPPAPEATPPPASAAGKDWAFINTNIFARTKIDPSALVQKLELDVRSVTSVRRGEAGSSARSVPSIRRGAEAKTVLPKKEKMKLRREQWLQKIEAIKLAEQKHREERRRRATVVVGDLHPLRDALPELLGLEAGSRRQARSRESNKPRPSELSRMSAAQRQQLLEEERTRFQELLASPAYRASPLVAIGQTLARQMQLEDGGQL

Experiments:
Assay in all cases: log2 fold change, soluble protein after heating vs DMSO (PISA); higher = thermal stabilisation; K562 lysate, 10 uM; active = over 0.2 and 3.5 SD of the protein, either way, in both replicates (recomputed)
vemurafenib = compound: CCCS(=O)(=O)Nc1ccc(F)c(C(=O)c2c[nH]c3ncc(-c4ccc(Cl)cc4)cc23)c1F [vemurafenib]
Summary of the method: (§1)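 A 30 min treatment with 10 μM compound was applied to crude K562 extract at 1 mg/mL protein in PBS pH 7.4 with 1 mM MgCl2. Heating for 3 min spanned 48°C-58°C, after which aliquots were pooled, adjusted to 0.5% NP-40 at 4°C and spun at 21,000xg for 90 min. TMTpro 16plex LC-MS/MS of the supernatant, with channel sums equalised, gave values recorded as log-two fold change in thermal stability against solvent controls, from duplicates.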

[1] = compound: CCCS(=O)(=O)Nc1ccc(F)c(C(=O)c2c[nH]c3ncc(Cl)cc23)c1F
Summary of the method: as §1

barasertib = compound: CCN(CCCOc1ccc2c(Nc3cc(CC(=O)Nc4cccc(F)c4)[nH]n3)ncnc2c1)CCOP(=O)(O)O [barasertib]
Summary of the method: as §1

[2] = compound: CC[C@@H]1C(=O)N(C)c2cnc(Nc3ccc(C(=O)NC4CCN(C)CC4)cc3OC)nc2N1C1CCCC1
Summary of the method: as §1

volasertib = compound: CC[C@@H]1C(=O)N(C)c2cnc(Nc3ccc(C(=O)N[C@H]4CC[C@H](N5CCN(CC6CC6)CC5)CC4)cc3OC)nc2N1C(C)C [volasertib]
Summary of the method: as §1

[3] = compound: CCn1c(C(=O)N(C2CC2)C2CC2)cc2c3c(ncn3C)c(Nc3cc(C)n(C)n3)nc21
Summary of the method: as §1

[4] = compound: CCn1cc(-c2ccnc3[nH]c(-c4cccc(CN(C)C)c4)cc23)c(-c2ccc(NC(=O)N(C)C)cc2)n1
Summary of the method: as §1

[5] = compound: CN1CCC(CNc2ccc3ncc(-c4cccc(OC(F)(F)F)c4)n3n2)CC1
Summary of the method: as §1

saracatinib = compound: CN1CCN(CCOc2cc(OC3CCOCC3)c3c(Nc4c(Cl)ccc5c4OCO5)ncnc3c2)CC1 [saracatinib]
Summary of the method: as §1

sotrastaurin = compound: CN1CCN(c2nc(C3=C(c4c[nH]c5ccccc45)C(=O)NC3=O)c3ccccc3n2)CC1 [sotrastaurin]
Summary of the method: as §1

alvocidib = compound: CN1CC[C@H](c2c(O)cc(O)c3c(=O)cc(-c4ccccc4Cl)oc23)[C@H](O)C1 [alvocidib]
Summary of the method: as §1

Tubastatin A = compound: CN1CCc2c(c3ccccc3n2Cc2ccc(C(=O)NO)cc2)C1 [Tubastatin A]
Summary of the method: as §1

[6] = compound: CNC(=O)C1=CC=CC=C1NC2=NC(=NC=C2Cl)NC3=C(C=C(C=C3)N4CCOCC4)OC
Summary of the method: as §1

defactinib = compound: CNC(=O)c1ccc(Nc2ncc(C(F)(F)F)c(NCc3nccnc3N(C)S(C)(=O)=O)n2)cc1 [defactinib]
Summary of the method: as §1

[7] = compound: CNc1nc(-c2ccc3c(N)n[nH]c3c2)cc(N2C[C@@H](C(=O)NC3CCCCC3)CC[C@H]2C)n1
Summary of the method: as §1

encorafenib = compound: COC(=O)N[C@@H](C)CNc1nccc(-c2cn(C(C)C)nc2-c2cc(Cl)cc(NS(C)(=O)=O)c2F)n1 [encorafenib]
Summary of the method: as §1

[8] = compound: COC(=O)[C@H](CCSC)NC(=O)C1=C(C=C(C=C1)NC[C@H](CS)N)C2=CC=CC=C2
Summary of the method: as §1

alisertib = compound: COc1cc(Nc2ncc3c(n2)-c2ccc(Cl)cc2C(c2c(F)cccc2OC)=NC3)ccc1C(=O)O [alisertib]
Summary of the method: as §1

[9] = compound: COc1cc2nc(-c3cc(F)ccc3O)nc(N[C@@H]3CNC[C@H]3C(C)(C)O)c2cc1OC
Summary of the method: as §1

gefitinib = compound: COc1cc2ncnc(Nc3ccc(F)c(Cl)c3)c2cc1OCCCN1CCOCC1 [gefitinib]
Summary of the method: as §1

Measured: log2 fold change

EXOC2 (UniProt Q96KP1)
inactive: vemurafenib 0.018 | [1] 0.109 | barasertib 0.041 | [2] -0.028 | volasertib -0.043 | [3] 0.031 | [4] 0.017 | [5] -0.094 | saracatinib 0.034 | sotrastaurin 0.049 | alvocidib 0.025 | Tubastatin A -0.107 | [6] -0.012 | defactinib 0.046 | [7] -0.048 | encorafenib 0.031 | [8] 0.027 | alisertib 0 | [9] 0.007 | gefitinib 0.005

FAM234A (UniProt Q9H0X4)
inactive: vemurafenib 0.025 | [1] -0.045 | barasertib 0.037 | [2] 0.133 | volasertib 0.04 | [3] -0.033 | [4] -0.05 | [5] 0.042 | saracatinib 0.036 | sotrastaurin -0.007 | alvocidib -0.024 | Tubastatin A 0.083 | [6] 0.025 | defactinib -0.038 | [7] -0.001 | encorafenib 0.013 | [8] -0.04 | alisertib -0.018 | [9] -0.014 | gefitinib -0.001

ERLEC1 (UniProt Q96DZ1)
inactive: vemurafenib 0.009 | [1] 0.003 | barasertib 0.009 | [2] -0.023 | volasertib 0.015 | [3] -0.013 | [4] -0.027 | [5] 0.034 | saracatinib -0.052 | sotrastaurin 0.009 | alvocidib 0.006 | Tubastatin A 0.03 | [6] -0.012 | defactinib -0.016 | [7] -0.009 | encorafenib 0.054 | [8] -0.019 | alisertib -0.062 | [9] -0.008 | gefitinib 0.084

FAM118A (UniProt Q9NWS6)
inactive: vemurafenib -0.013 | [1] 0.011 | barasertib 0.018 | [2] -0.017 | volasertib -0.009 | [3] -0.031 | [4] -0.135 | [5] 0.077 | saracatinib 0.063 | sotrastaurin 0.025 | alvocidib 0.006 | Tubastatin A -0.153 | [6] 0.077 | defactinib -0.007 | [7] 0.002 | encorafenib -0.017 | [8] 0.002 | alisertib 0.008 | [9] 0.03 | gefitinib 0.003

FAM120B (UniProt Q96EK7)
inactive: vemurafenib 0.001 | [1] 0.045 | barasertib -0.009 | [2] 0.01 | volasertib -0.029 | [3] 0.033 | [4] -0.011 | [5] -0.085 | saracatinib 0.005 | sotrastaurin 0.008 | alvocidib -0.005 | Tubastatin A -0.063 | [6] 0.016 | defactinib 0.073 | [7] -0.02 | encorafenib 0.029 | [8] 0.034 | alisertib -0.007 | [9] -0.001 | gefitinib 0.021

ETHE1 (UniProt O95571)
inactive: vemurafenib -0.018 | [1] 0.022 | barasertib 0.076 | [2] -0.013 | volasertib -0.017 | [3] -0.007 | [4] 0.044 | [5] 0.003 | saracatinib 0.001 | sotrastaurin -0.004 | alvocidib -0.076 | Tubastatin A 0.035 | [6] -0.014 | defactinib -0.008 | [7] -0.021 | encorafenib 0.008 | [8] 0.037 | alisertib 0.094 | [9] 0.022 | gefitinib -0.14

ERP44 (UniProt Q9BS26)
inactive: vemurafenib 0.002 | [1] -0.012 | barasertib 0.004 | [2] 0.015 | volasertib 0.015 | [3] 0.02 | [4] -0.03 | [5] 0.069 | saracatinib 0.008 | sotrastaurin 0.018 | alvocidib -0.016 | Tubastatin A 0.032 | [6] -0.013 | defactinib 0.001 | [7] 0 | encorafenib -0.01 | [8] -0.019 | alisertib 0 | [9] -0.011 | gefitinib 0.014

EXOC7 (UniProt Q9UPT5)
inactive: vemurafenib -0.006 | [1] 0.031 | barasertib 0.03 | [2] -0.015 | volasertib -0.069 | [3] 0.013 | [4] -0.098 | [5] 0.004 | saracatinib 0.015 | sotrastaurin 0 | alvocidib -0.011 | Tubastatin A -0.022 | [6] 0.033 | defactinib -0.018 | [7] 0.06 | encorafenib 0.005 | [8] -0.038 | alisertib 0.006 | [9] 0.007 | gefitinib -0.018

ERP29 (UniProt P30040)
inactive: vemurafenib -0.011 | [1] -0.017 | barasertib -0.071 | [2] 0.03 | volasertib 0.01 | [3] 0.016 | [4] 0.199 | [5] -0.082 | saracatinib -0.006 | sotrastaurin 0.003 | alvocidib 0.07 | Tubastatin A 0.023 | [6] 0.006 | defactinib 0.032 | [7] -0.024 | encorafenib -0.019 | [8] -0.049 | alisertib 0.013 | [9] -0.008 | gefitinib -0.002

EZH2 isoform 2 (UniProt Q15910)
inactive: vemurafenib 0.069 | [1] -0.024 | barasertib -0.054 | [2] 0.083 | volasertib -0.039 | [3] 0 | [4] 0.119 | [5] -0.151 | saracatinib 0.023 | sotrastaurin 0.047 | alvocidib 0.023 | Tubastatin A -0.156 | [6] -0.052 | defactinib 0.093 | [7] 0.009 | encorafenib -0.041 | [8] 0.055 | alisertib -0.158 | [9] 0.011 | gefitinib 0.077

EWSR1 isoform 5 (UniProt Q01844)
inactive: vemurafenib 0.033 | [1] -0.023 | barasertib -0.013 | [2] 0.039 | volasertib 0.045 | [3] -0.006 | [4] -0.019 | [5] 0.021 | saracatinib -0.017 | sotrastaurin 0.037 | alvocidib -0.002 | Tubastatin A 0.101 | [6] -0.017 | defactinib -0.011 | [7] 0.021 | encorafenib -0.022 | [8] -0.036 | alisertib 0.049 | [9] -0.005 | gefitinib -0.003

FAHD2B (UniProt Q6P2I3)
inactive: vemurafenib -0.05 | [1] 0.011 | barasertib 0.04 | [2] 0.108 | volasertib 0.001 | [3] 0.012 | [4] -0.076 | [5] 0.069 | saracatinib 0.221 | sotrastaurin 0 | alvocidib -0.012 | Tubastatin A -0.041 | [6] -0.078 | defactinib 0.11 | [7] 0 | encorafenib -0.083 | [8] -0.026 | alisertib 0.124 | [9] 0.046 | gefitinib -0.155

ESD (UniProt P10768)
inactive: vemurafenib 0.017 | [1] 0.034 | barasertib -0.041 | [2] -0.008 | volasertib 0.005 | [3] 0.023 | [4] 0.004 | [5] 0.014 | saracatinib -0.016 | sotrastaurin -0.062 | alvocidib 0.019 | Tubastatin A 0.005 | [6] -0.014 | defactinib -0.031 | [7] -0.026 | encorafenib -0.06 | [8] -0.174 | alisertib -0.02 | [9] -0.03 | gefitinib -0.05

FAM162A (UniProt Q96A26)
inactive: vemurafenib 0.035 | [1] -0.041 | barasertib -0.013 | [2] 0.086 | volasertib 0.029 | [3] 0.054 | [4] -0.101 | [5] 0.047 | saracatinib -0.022 | sotrastaurin -0.028 | alvocidib 0.072 | Tubastatin A -0.015 | [6] -0.036 | defactinib -0.034 | [7] 0.081 | encorafenib -0.022 | [8] -0.01 | alisertib 0.014 | [9] -0.035 | gefitinib -0.038

EVL isoform 2 (UniProt Q9UI08)
inactive: vemurafenib 0.046 | [1] 0.016 | barasertib 0.006 | [2] 0.03 | volasertib -0.005 | [3] -0.215 | [4] -0.007 | [5] 0.041 | saracatinib 0.031 | sotrastaurin 0.003 | alvocidib -0.023 | Tubastatin A -0.051 | [6] -0.002 | defactinib 0.01 | [7] 0.015 | encorafenib 0.059 | [8] -0.077 | alisertib -0.05 | [9] 0.026 | gefitinib 0.047

Taken from above (2 entries):
EXOC2 (UniProt Q96KP1)
inactive: vemurafenib 0.018 | [1] 0.109 | barasertib 0.041 | [2] -0.028 | volasertib -0.043 | [3] 0.031 | [4] 0.017 | [5] -0.094 | saracatinib 0.034 | sotrastaurin 0.049 | alvocidib 0.025 | Tubastatin A -0.107 | [6] -0.012 | defactinib 0.046 | [7] -0.048 | encorafenib 0.031 | [8] 0.027 | alisertib 0 | [9] 0.007 | gefitinib 0.005

FAM234A (UniProt Q9H0X4)
inactive: vemurafenib 0.025 | [1] -0.045 | barasertib 0.037 | [2] 0.133 | volasertib 0.04 | [3] -0.033 | [4] -0.05 | [5] 0.042 | saracatinib 0.036 | sotrastaurin -0.007 | alvocidib -0.024 | Tubastatin A 0.083 | [6] 0.025 | defactinib -0.038 | [7] -0.001 | encorafenib 0.013 | [8] -0.04 | alisertib -0.018 | [9] -0.014 | gefitinib -0.001

The results go on:

FAM207A (UniProt Q9NSI2)
inactive: vemurafenib -0.016 | [1] 0.01 | barasertib -0.087 | [2] 0.061 | volasertib -0.006 | [3] -0.044 | [4] -0.021 | [5] -0.021 | saracatinib -0.007 | sotrastaurin -0.013 | alvocidib -0.004 | Tubastatin A 0.034 | [6] 0.026 | defactinib -0.025 | [7] 0.025 | encorafenib -0.002 | [8] -0.033 | alisertib 0.014 | [9] 0.014 | gefitinib -0.009
